Data as given in the supplement of paper PMC8728848.
The other results are listed elsewhere or left out.

Tests used:
Assay in all cases: glycan array binding signal (z-score within array); higher = stronger binding
Details in all cases: glycan notation: IUPAC condensed, linker removed
Fuc(a1-2)Gal = target: Fuc(a1-2)Gal
In short: (§1)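 The Consortium for Functional Glycomics database supplied 3228 glycan arrays, of which those lacking an available protein sequence were dropped. The binding signal, a within-array Z-score, was averaged across arrays of the same protein sequence and across linkers. Negative scores can be read as non-binding.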

Fuc(a1-2)Gal(b1-3)GalNAc = target: Fuc(a1-2)Gal(b1-3)GalNAc
In short: as §1

[1] = target: Fuc(a1-2)Gal(b1-3)GalNAc(a1-3)[Fuc(a1-2)]Gal(b1-4)Glc
In short: as §1

[2] = target: Fuc(a1-2)Gal(b1-3)GalNAc(a1-3)[Fuc(a1-2)]Gal(b1-4)GlcNAc
In short: as §1

[3] = target: Fuc(a1-2)Gal(b1-3)GalNAc(b1-3)Gal
In short: as §1

[4] = target: Fuc(a1-2)Gal(b1-3)GalNAc(b1-3)Gal(a1-4)Gal(b1-4)Glc
In short: as §1

[5] = target: Fuc(a1-2)Gal(b1-3)GalNAc(b1-4)[Neu5Ac(a2-3)]Gal(b1-4)Glc
In short: as §1

Fuc(a1-2)Gal(b1-3)GlcNAc = target: Fuc(a1-2)Gal(b1-3)GlcNAc
In short: as §1

[6] = target: Fuc(a1-2)Gal(b1-3)GlcNAc(b1-2)Man(a1-3)[Fuc(a1-2)Gal(b1-3)GlcNAc(b1-2)Man(a1-6)]Man(b1-4)GlcNAc(b1-4)GlcNAc
In short: as §1

[7] = target: Fuc(a1-2)Gal(b1-3)GlcNAc(b1-2)Man(a1-3)[Fuc(a1-2)Gal(b1-3)GlcNAc(b1-2)Man(a1-6)]Man(b1-4)GlcNAc(b1-4)[Fuc(a1-6)]GlcNAc
In short: as §1

[8] = target: Fuc(a1-2)Gal(b1-3)GlcNAc(b1-3)Gal(b1-4)Glc
In short: as §1

[9] = target: Fuc(a1-2)Gal(b1-3)GlcNAc(b1-3)GalNAc
In short: as §1

[10] = target: Fuc(a1-2)Gal(b1-3)GlcNAc(b1-3)[Fuc(a1-2)Gal(b1-3)GlcNAc(b1-6)]GalNAc
In short: as §1

[11] = target: Fuc(a1-2)Gal(b1-3)GlcNAc(b1-3)[Gal(b1-4)GlcNAc(b1-6)]Gal(b1-4)Glc
In short: as §1

[12] = target: Fuc(a1-2)Gal(b1-3)GlcNAc(b1-3)[Neu5Ac(a2-6)Gal(b1-4)GlcNAc(b1-6)]Gal(b1-4)Glc
In short: as §1

[13] = target: Fuc(a1-2)Gal(b1-3)GlcNAc6S
In short: as §1

[14] = target: Fuc(a1-2)Gal(b1-3)[Fuc(a1-4)]GlcNAc
In short: as §1

[15] = target: Fuc(a1-2)Gal(b1-3)[Fuc(a1-4)]GlcNAc(b1-2)Man(a1-3)[Fuc(a1-2)Gal(b1-3)[Fuc(a1-4)]GlcNAc(b1-2)Man(a1-3)]Man(b1-4)GlcNAc(b1-4)GlcNAc
In short: as §1

[16] = target: Fuc(a1-2)Gal(b1-3)[Fuc(a1-4)]GlcNAc(b1-2)Man(a1-3)[Fuc(a1-2)Gal(b1-3)[Fuc(a1-4)]GlcNAc(b1-2)Man(a1-6)]Man(b1-4)GlcNAc(b1-4)[Fuc(a1-6)]GlcNAc(b1-4)[Fuc(a1-6)]GlcNAc
In short: as §1

[17] = target: Fuc(a1-2)Gal(b1-3)[Fuc(a1-4)]GlcNAc(b1-3)[Fuc(a1-3)[Gal(b1-4)]GlcNAc(b1-6)]Gal(b1-4)Glc
In short: as §1

[18] = target: Fuc(a1-2)Gal(b1-3)[Fuc(a1-4)]GlcNAc(b1-3)[Gal(b1-4)GlcNAc(b1-6)]Gal(b1-4)Glc
In short: as §1

[19] = target: Fuc(a1-2)Gal(b1-4)Fuc(a1-3)]GlcNAc(b1-2)Man(a1-3)[Fuc(a1-2)Gal(b1-4)[Fuc(a1-3)]GlcNAc(b1-2)Man(a1-6)]Man(b1-4)GlcNAc(b1-4)GlcNAc
In short: as §1

Fuc(a1-2)Gal(b1-4)Glc = target: Fuc(a1-2)Gal(b1-4)Glc
In short: as §1

Fuc(a1-2)Gal(b1-4)Glc6S = target: Fuc(a1-2)Gal(b1-4)Glc6S
In short: as §1

Fuc(a1-2)Gal(b1-4)GlcNAc = target: Fuc(a1-2)Gal(b1-4)GlcNAc
In short: as §1

[20] = target: Fuc(a1-2)Gal(b1-4)GlcNAc(b1-2)Man
In short: as §1

[21] = target: Fuc(a1-2)Gal(b1-4)GlcNAc(b1-2)Man(a1-3)[Fuc(a1-2)Gal(b1-4)GlcNAc(b1-2)Man(a1-6)]Man(b1-4)GlcNAc(b1-4)GlcNAc
In short: as §1

[22] = target: Fuc(a1-2)Gal(b1-4)GlcNAc(b1-2)Man(a1-3)[Fuc(a1-2)Gal(b1-4)GlcNAc(b1-2)Man(a1-6)]Man(b1-4)GlcNAc(b1-4)[Fuc(a1-6)]GlcNAc
In short: as §1

[23] = target: Fuc(a1-2)Gal(b1-4)GlcNAc(b1-2)[Fuc(a1-2)Gal(b1-4)GlcNAc(b1-4)]Man(a1-3)[Fuc(a1-2)Gal(b1-4)GlcNAc(b1-2)Man(a1-6)]Man(b1-4)GlcNAc(b1-4)GlcNAc
In short: as §1

[24] = target: Fuc(a1-2)Gal(b1-4)GlcNAc(b1-3)Gal(b1-4)GlcNAc
In short: as §1

B1: Endo180d1-D4 (Homo sapiens), Q9UBG0 (protein)
chain: MGPGRPAPAPWPRHLLRCVLLLGCLHLGRPGAPGDAALPEPNVFLIFSHGLQGCLEAQGGQVRVTPACNTSLPAQRWKWVSRNRLFNLGTMQCLGTGWPGTNTTASLGMYECDREALNLRWHCRTLGDQLSLLLGARTSNISKPGTLERGDQTRSGQWRIYGSEEDLCALPYHEVYTIQGNSHGKPCTIPFKYDNQWFHGCTSTGREDGHLWCATTQDYGKDERWGFCPIKSNDCETFWDKDQLTDSCYQFNFQSTLSWREAWASCEQQGADLLSITEIHEQTYINGLLTGYSSTLWIGLNDLDTSGGWQWSDNSPLKYLNWESDQPDNPSEENCGVIRTESSGGWQNRDCSIALPYVCKKKPNATAEPTPPDRWANVKVECEPSWQPFQGHCYRLQAEKRSWQESKKACLRGGGDLVSIHSMAELEFITKQIKQEVEELWIGLNDLKLQMNFEWSDGSLVSFTHWHPFEPNNFRDSLEDCVTIWGPEGRWNDSPCNQSLPSICKKAGQLSQGAAEEDHGCRKGWTWHSPSCYWLGEDQVTYSEARRLCTDHGSQLVTITNRFEQAFVSSLIYNWEGEYFWTALQDLNSTGSFFWLSGDEVMYTHWNRDQPGYSRGGCVALATGSAMGLWEVKNCTSFRARYICRQSLGTPVTPELPGPDPTPSLTGSCPQGWASDTKLRYCYKVFSSERLQDKKSWVQAQGACQELGAQLLSLASYEEEHFVANMLNKIFGESEPEIHEQHWFWIGLNRRDPRGGQSWRWSDGVGFSYHNFDRSRHDDDDIRGCAVLDLASLQWVAMQCDTQLDWICKIPRGTDVREPDDSPQGRREWLRFQEAEYKFFEHHSTWAQAQRICTWFQAELTSVHSQAELDFLSHNLQKFSRAQEQHWWIGLHTSESDGRFRWTDGSIINFISWAPGKPRPVGKDKKCVYMTASREDWGDQRCLTALPYICKRSNVTKETQPPDLPTTALGGCPSDWIQFLNKCFQVQGQEPQSRVKWSEAQFSCEQQEAQLVTITNPLEQAFITASLPNVTFDLWIGLHASQRDFQWVEQEPLMYANWAPGEPSGPSPAPSGNKPTSCAVVLHSPSAHFTGRWDDRSCTEETHGFICQKGTDPSLSPSPAALPPAPGTELSYLNGTFRLLQKPLRWHDALLLCESHNASLAYVPDPYTQAFLTQAARGLRTPLWIGLAGEEGSRRYSWVSEEPLNYVGWQDGEPQQPGGCTYVDVDGAWRTTSCDTKLQGAVCGVSSGPPPPRRISYHGSCPQGLADSAWIPFREHCYSFHMELLLGHKEARQRCQRAGGAVLSILDEMENVFVWEHLQSYEGQSRGAWLGMNFNPKGGTLVWQDNTAVNYSNWGPPGLGPSMLSHNSCYWIQSNSGLWRPGACTNITMGVVCKLPRAEQSSFSPSALPENPAALVVVLMAVLLLLALLTAALILYRRRQSIERGAFEGARYSRSSSSPTEATEKNILVSDMEMNEQQE
Fuc(a1-2)Gal
  glycan array binding signal (z-score): 0.059
Fuc(a1-2)Gal(b1-3)GalNAc
  glycan array binding signal (z-score): -0.511
[1]
  glycan array binding signal (z-score): 0.755
[2]
  glycan array binding signal (z-score): -0.616
[3]
  glycan array binding signal (z-score): 0.078
[4]
  glycan array binding signal (z-score): -0.159
[5]
  glycan array binding signal (z-score): -0.109
Fuc(a1-2)Gal(b1-3)GlcNAc
  glycan array binding signal (z-score): 0.974
[6]
  glycan array binding signal (z-score): 0.403
[7]
  glycan array binding signal (z-score): -0.446
[8]
  glycan array binding signal (z-score): -0.333
[9]
  glycan array binding signal (z-score): -0.507
[10]
  glycan array binding signal (z-score): 0.368
[11]
  glycan array binding signal (z-score): -0.323
[12]
  glycan array binding signal (z-score): 0.005
[13]
  glycan array binding signal (z-score): 1.24
[14]
  glycan array binding signal (z-score): 0.276
[15]
  glycan array binding signal (z-score): 0.451
[16]
  glycan array binding signal (z-score): -0.37
[17]
  glycan array binding signal (z-score): -1.06
[18]
  glycan array binding signal (z-score): -0.341
[19]
  glycan array binding signal (z-score): 4.92
Fuc(a1-2)Gal(b1-4)Glc
  glycan array binding signal (z-score): -0.398
Fuc(a1-2)Gal(b1-4)Glc6S
  glycan array binding signal (z-score): -0.741
Fuc(a1-2)Gal(b1-4)GlcNAc
  glycan array binding signal (z-score): -0.365
[20]
  glycan array binding signal (z-score): -0.187
[21]
  glycan array binding signal (z-score): -0.976
[22]
  glycan array binding signal (z-score): 0.245
[23]
  glycan array binding signal (z-score): -0.638
[24]
  glycan array binding signal (z-score): -0.377
